This is an account of results in the supplement of paper PMC9877034.

Where a name gives a salt, the structure may show the parent alone. ± gives the standard deviation of the averaged measurements. Whole data set: some 1,000 compounds, median “cFRET/donor change relative to DMSO, normalised to beta-lapachone positive control (supercomplex I-IV assembly)” near 0.18, cut for the lowest 2% near -1. The list shows a part of the results.

This assay deals with C2C12 (NDUFB8-AcGFP / COX8A-DsRed-Monomer FRET reporter). The experiment in a line: cFRET/donor change relative to DMSO, normalised to beta-lapachone positive control (supercomplex I-IV assembly) (fraction of beta-lapachone effect); higher = more respiratory supercomplex assembly. The conditions noted are these: 40 µM; 24 h. As for the experimental part: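 Cells were treated with 40 uM compound for 24 h and imaged on an IN Cell Analyzer 6000. Corrected FRET was divided by donor signal (cFRET/donor) and measured in two replicate experiments. The score is (mean cFRET/donor of compound - mean DMSO) / (mean beta-lapachone 40 uM - mean DMSO). Compounds flagged for prominent cell death, abnormal morphology or decreased cell number were excluded.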
As for `Brc1c(NC2=NCCN2)ccc2nccnc12`, the cFRET/donor change is 0.252.

`CN(C)CCOC(=O)COc1ccc(Cl)cc1` [Centrophenoxine hydrochloride] registered a cFRET/donor change of 0.0376.

`OC(CCN1CCCCC1)(c1ccccc1)C1CCCCC1` (configuration not stated) [Trihexyphenidyl hydrochloride] displayed a cFRET/donor change of 0.294.

Regarding `N=C(N)N/N=C/c1c(Cl)cccc1Cl` [Guanabenz acetate], the cFRET/donor change came to 0.39.

`N[C@@H](C(=O)N[C@@H]1C(=O)N2C(C(=O)O)=C(Cl)CS[C@H]12)c1ccccc1` [Cefaclor] registered a cFRET/donor change of 0.459.

Turning to `NCCS(=O)O` [Hypotaurine], the cFRET/donor change is 0.0357.

Molecule `CC(C)NC[C@H](O)c1ccc(O)c(O)c1` [R(-)-Isoproterenol (+)-bitartrate] registered a cFRET/donor change of -0.0064.

As to `CN(C)[C@@H]1C(O)=C(C(N)=O)C(=O)[C@@]2(O)C(O)=C3C(=O)c4c(O)ccc(Cl)c4[C@@H](O)[C@H]3C[C@@H]12` [Demeclocycline hydrochloride], the cFRET/donor change came out at 1.7.

Molecule `O=CN(O)CCCP(=O)(O)O` [Fosmidomycin sodium salt hydrate] displayed a cFRET/donor change of 0.0766.

As for `CCc1cccc2c3c([nH]c12)C(CC)(CC(=O)O)OCC3` (configuration not stated) [Etodolac], the cFRET/donor change was 0.0376.

In the case of `NOCC(=O)O` [O-(Carboxymethyl)hydroxylamine hemihydrochloride], the cFRET/donor change is 0.116.

The molecule `O=C1N(c2ccccc2)c2ccccc2C1(Cc1ccncc1)Cc1ccncc1` [Linopirdine] had a cFRET/donor change of 0.146.

As to `CN(C)CCC(c1ccc(Br)cc1)c1ccccn1` (racemic) [(±)-Brompheniramine maleate], the cFRET/donor change came to 0.0175.

Consider `Cc1ccccc1N1C(=O)c2cc(S(N)(=O)=O)c(Cl)cc2NC1C` (configuration not stated) [Metolazone], for which the cFRET/donor change came to 0.165 ± 0.076.

`CCCn1c(=O)c2[nH]c(-c3ccc(S(=O)(=O)O)cc3)nc2n(CCC)c1=O` [1,3-Dipropyl-8-p-sulfophenylxanthine] showed a cFRET/donor change of 0.138.

`CNCCC(Oc1ccccc1OC)c1ccccc1` (configuration not stated) [Nisoxetine hydrochloride] showed a cFRET/donor change of 0.186.

Regarding `CC1CNCCN1S(=O)(=O)c1cccc2cnccc12` (configuration not stated), the cFRET/donor change is 0.53.

As to `CC(C)Cc1ccc(C(C)C(=O)O)cc1` (racemic) [(±)-Ibuprofen], the cFRET/donor change is 0.406.

Turning to `CCOC(=O)C1=C[C@]2(CC)CCCN3CCc4c(n1c1ccccc41)[C@@H]32` [Vinpocetine], the cFRET/donor change came to 0.169.

`C[C@]12CC[C@@H]3c4ccc(O)cc4CC[C@H]3[C@@H]1CCC2=O` [Estrone] gave a cFRET/donor change of 0.406.

As to `CCCCCCCC/C=C\CCCCCCCC(=O)NCCc1ccc(O)c(O)c1` [N-Oleoyldopamine], the cFRET/donor change is 2.97.

In turn, `CC(=O)C(C)=O` [2,3-Butanedione] gave a cFRET/donor change of 0.341.

The molecule `COc1cc(C(O)C(=O)O)ccc1O` (racemic) [(±)-Vanillylmandelic acid] showed a cFRET/donor change of 0.0741.

Turning to `CSc1nc(N)c2ncn([C@@H]3O[C@H](COP(=O)(O)OP(=O)(O)OP(=O)(O)O)[C@H](O)C3O)c2n1` (some centres not stated) [2-Methylthioadenosine triphosphate tetrasodium], the cFRET/donor change was -0.0581.

The molecule `CN1[C@@H](CC(=O)c2ccccc2)CCC[C@H]1C[C@H](O)c1ccccc1` [alpha-Lobeline hydrochloride] displayed a cFRET/donor change of 0.0476.

Regarding `CCCCNC(=O)NS(=O)(=O)c1ccc(C)cc1` [Tolbutamide], the cFRET/donor change worked out at 0.109.

Consider `Cc1cc2c(cc1Cl)N(C(=O)Nc1cccc3ncccc13)CC2`, for which the cFRET/donor change was -0.136.

The molecule `CCCCCCCCCCC/C=C\C(C)(C)/C=C\CCCC(=O)O` [7,7-Dimethyl-(5Z,8Z)-eicosadienoic acid] registered a cFRET/donor change of 0.0414.

The molecule `N=C(N)NCCC[C@H](N)C(=O)O` [L-Arginine] displayed a cFRET/donor change of -0.123.

As to `CNCCC(Oc1ccc(C(F)(F)F)cc1)c1ccccc1` (configuration not stated) [Fluoxetine hydrochloride], the cFRET/donor change was 1.07.

For the molecule `O=P(O)(O)C(Cl)(Cl)P(=O)(O)O` [Clodronic acid], the cFRET/donor change was determined as 0.14.

With `O=C1CCc2cc(OCCCCc3nnnn3C3CCCCC3)ccc2N1` [Cilostazol], the cFRET/donor change is 0.239.

`C=C(C)[C@@H]1CC=C(C(=O)O)CC1` [(-)-Perillic acid] returned a cFRET/donor change of 0.0282.

Turning to `COC(=O)[C@@H]1[C@H]2C[C@H]3c4[nH]c5ccccc5c4CCN3C[C@@H]2CC[C@@H]1O` [Yohimbine hydrochloride], the cFRET/donor change was 0.212.

Regarding `CC1(C)NC(=O)N(c2ccc([N+](=O)[O-])c(C(F)(F)F)c2)C1=O` [Nilutamide], the cFRET/donor change was determined as 0.154.

The molecule `CC(C)C[C@H](NC(=O)[C@H]1O[C@@H]1C(=O)O)C(=O)NCCCCN=C(N)N` gave a cFRET/donor change of 0.0608.

Molecule `CC(C)COC(=O)OCN1C(=O)CN(CCN2CC(=O)N(COC(=O)OCC(C)C)C(=O)C2)CC1=O` [Sobuzoxane] showed a cFRET/donor change of 0.0551.

The molecule `O=C(Nc1nc2ccccc2n1CCN1CCOCC1)c1cccc([N+](=O)[O-])c1` [IRAK-1/4 Inhibitor I] showed a cFRET/donor change of 0.326.

The molecule `CC(=O)SCC[N+](C)(C)C` [Acetylthiocholine chloride] had a cFRET/donor change of 0.0278.

As for `Nc1ccc(-c2ccc3ccccc3n2)cc1` [BF-170 hydrochloride], the cFRET/donor change is -0.429.

Turning to `N=C(N)NC(=O)c1nc(Cl)c(N)nc1N` [Amiloride hydrochloride], the cFRET/donor change is -0.0692.

Turning to `CC(C)NCC(O)c1ccc(NS(C)(=O)=O)cc1` (racemic) [(±)-Sotalol hydrochloride], the cFRET/donor change turned out to be 0.137.

`O=[N+]([O-])c1cccc2c(Br)[nH]nc12` [3-Bromo-7-nitroindazole] had a cFRET/donor change of -0.244.

The molecule `NS(=O)(=O)c1cc(C(=O)O)c(NCc2ccco2)cc1Cl` [Furosemide] registered a cFRET/donor change of 0.0283.

The molecule `NC(=S)c1ccc[n+]([C@@H]2O[C@@H](COP(=O)([O-])OP(=O)(O)OC[C@H]3O[C@@H](n4cnc5c(N)ncnc54)C(OP(=O)(O)O)[C@H]3O)C(O)C2O)c1` (some centres not stated) [Thio-NADP sodium] yielded a cFRET/donor change of -0.317.

Turning to `CCc1cncnc1N1CCN(Cc2nc3ccc(C(F)(F)F)cc3[nH]2)CC1`, the cFRET/donor change amounted to 0.351.

Consider `CN[C@H](CC(C)C)C(=O)N[C@H]1C(=O)N[C@@H](CC(N)=O)C(=O)N[C@H]2C(=O)N[C@H]3C(=O)N[C@H](C(=O)N[C@H](C(=O)O)c4cc(O)cc(O)c4-c4cc3ccc4O)[C@H](O)c3ccc(c(Cl)c3)Oc3cc2cc(c3O[C@@H]2O[C@H](CO)[C@@H](O)[C@H](O)[C@H]2O[C@H]2C[C@](C)(N)[C@H](O)[C@H](C)O2)Oc2ccc(cc2Cl)[C@H]1O` [Vancomycin hydrochloride from Streptomyces orientalis], for which the cFRET/donor change was found to be 0.153.
